Source: PubChem BioAssay AID504786 (Drosophila RNAi Screening Center, 2011)
The screen tested about 21,000 reagents; below is a random part of those that have a named target and a result. 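Primary screen; positive scores mean lost reporter signal, so the sign may be inverted from the usual convention.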 Names joined by + are all predicted targets of the reagent. Not all columns of the deposit are shown.

- Screen: 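Fly genes required for HIF-dependent transcription when hypoxia is mimicked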 (primary screen)
- Cells: Drosophila S2 cells with a stable HIF luciferase reporter
- Reagent: long dsRNA against Drosophila genes, about 0.2 µg dsRNA per well of a 384-well plate
- Timing: three days of knock-down, then 20 h of DFO before reading
- Conditions: desferrioxamine (DFO) at 100 µM, an iron chelator that mimics hypoxia, for 20 h
- Measured: 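HIF reporter luminescence in cells given 100 µM DFO for 20 h, using the mouse ldh-a hypoxia-response element, scored as per-plate z-scores; higher means greater loss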
- Direction: z-score: higher = stronger loss of HIF reporter signal

Cpr11B (GeneID 32203) [DRSC19859] → z-score, replicate 1: 0
CG10669 (GeneID 43069) [DRSC14261] → z-score, replicate 1: -0.1
RpL18A (GeneID 36985) [DRSC07538] → z-score, replicate 1: 6.4
SWIP (GeneID 32594) [DRSC19540] → z-score, replicate 1: 0.2
CG7841 (GeneID 39672) [DRSC10922] → z-score, replicate 1: -0.3
Ets98B (GeneID 43334) [DRSC16666] → z-score, replicate 1: -0.5
CG9313 (GeneID 37374) [DRSC04540] → z-score, replicate 1: 0.1
CG32647 (GeneID 326226) [DRSC19690] → z-score, replicate 1: -0.2
CG32647 (GeneID 326226) [DRSC19878] → z-score, replicate 1: 0.4
CG13795 (GeneID 34049) [DRSC02299] → z-score, replicate 1: -0.2
Scgalpha (GeneID 34135) [DRSC03076] → z-score, replicate 1: -0.3
Klp64D (GeneID 38611) [DRSC11204] → z-score, replicate 1: -0.5
CG13634 (GeneID 42951) [DRSC14635] → z-score, replicate 1: 0.4
Tcs4 (GeneID 32982) [DRSC19587] → z-score, replicate 1: -0.4
Ccdc58 + CG34116 [DRSC10105] → z-score, replicate 1: -0.3
CG15772 (GeneID 31498) [DRSC18078] → z-score, replicate 1: -0.2
CalpA (GeneID 37232) [DRSC07352] → z-score, replicate 1: -0.5
CadN2 + CG42830 [DRSC03062] → z-score, replicate 1: -0.3
CadN2 + CG42830 [DRSC03063] → z-score, replicate 1: -0.4
CadN2 + CG42830 [DRSC03064] → z-score, replicate 1: 0
CG10822 (GeneID 37274) [DRSC06005] → z-score, replicate 1: -0.3
CG4259 (GeneID 33385) [DRSC00645] → z-score, replicate 1: -0.2
ppk11 (GeneID 34299) [DRSC02737] → z-score, replicate 1: -0.3
CG32219 (GeneID 317922) [DRSC09641] → z-score, replicate 1: -0.5
CG14739 (GeneID 41467) [DRSC14959] → z-score, replicate 1: -0.2
CG13405 (GeneID 38016) [DRSC08310] → z-score, replicate 1: -0.4
Drak (GeneID 32097) [DRSC19778] → z-score, replicate 1: -0.3
CG3306 (GeneID 39116) [DRSC10357] → z-score, replicate 1: -0.1
Obp56g (GeneID 37270) [DRSC06432] → z-score, replicate 1: -0.1
Nca (GeneID 40186) [DRSC11233] → z-score, replicate 1: -0.3
Sec6 (GeneID 37142) [DRSC06932] → z-score, replicate 1: -0.2
CycA (GeneID 39340) [DRSC09132] → z-score, replicate 1: 0.7
CycA (GeneID 39340) [DRSC11123] → z-score, replicate 1: 1.8

Laid out differently: entries from further up.
Ccdc58 + CG34116 [DRSC10105]
- z-score, replicate 1: -0.3

CG15772 (GeneID 31498) [DRSC18078]
- z-score, replicate 1: -0.2

CalpA (GeneID 37232) [DRSC07352]
- z-score, replicate 1: -0.5

CadN2 + CG42830 [DRSC03062]
- z-score, replicate 1: -0.3

CadN2 + CG42830 [DRSC03063]
- z-score, replicate 1: -0.4

The results go on:
CG1265 (GeneID 38517) [DRSC08288] → z-score, replicate 1: -0.3
CG16865 (GeneID 34788) [DRSC01904] → z-score, replicate 1: -0.3
BEAF-32 (GeneID 36645) [DRSC05927] → z-score, replicate 1: -0.3
Art2 (GeneID 33631) [DRSC00627] → z-score, replicate 1: -0.3
Ag5r (GeneID 44631) [DRSC19327] → z-score, replicate 1: -0.3
mRpS9 (GeneID 40932) [DRSC12645] → z-score, replicate 1: 0.8
mRpS9 (GeneID 40932) [DRSC15456] → z-score, replicate 1: 0.9
lmgA + lmgB [DRSC03566] → z-score, replicate 1: -0.2
Phlpp (GeneID 35178) [DRSC02065] → z-score, replicate 1: -0.3
CG7483 (GeneID 40987) [DRSC16249] → z-score, replicate 1: -0.3
alpha-Est6 (GeneID 40902) [DRSC12618] → z-score, replicate 1: -0.3
CecA2 (GeneID 43597) [DRSC16604] → z-score, replicate 1: 0.2
CG32388 (GeneID 192611) [DRSC08861] → z-score, replicate 1: -0.3
Fnta (GeneID 33682) [DRSC00557] → z-score, replicate 1: -0.4
Cyp4p1 (GeneID 45524) [DRSC07372] → z-score, replicate 1: -0.4
Mef2 (GeneID 36032) [DRSC07468] → z-score, replicate 1: -0.1
Gpdh3 (GeneID 42624) [DRSC13561] → z-score, replicate 1: -0.1
Gpdh3 (GeneID 42624) [DRSC15325] → z-score, replicate 1: -1
